Test [1] deals with T1, H3K27me3 peptide.
T1 sequence (peptide, trimethyl-lysine at K27 (Kme3); fluorescein (position not stated)): QLATKAARKSAPA
The test can be described thus: condition: FXR1 stock 1.03 mM, serial twofold dilutions; fluorescence polarisation; fluoresceinated peptide at 100 nM; FXR1 (stock 1.03 mM) or FXR2 (stock 2.4 mM) in serial twofold dilutions from 1/2 to 1/1024; 20 mM Tris-Cl pH 8.0, 50 mM NaCl, 1 mM DTT; room temperature, 30 minutes; both purified.

By UniProt entry, the sequences of proteins in these tests, tags left out. Residues count along the entry.
UniProt P51114, residues 2-132: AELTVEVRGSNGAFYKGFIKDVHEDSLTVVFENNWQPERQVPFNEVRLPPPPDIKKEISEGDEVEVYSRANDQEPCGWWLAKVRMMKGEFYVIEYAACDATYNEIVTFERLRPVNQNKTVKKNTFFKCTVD
UniProt P51116, residues 14-137: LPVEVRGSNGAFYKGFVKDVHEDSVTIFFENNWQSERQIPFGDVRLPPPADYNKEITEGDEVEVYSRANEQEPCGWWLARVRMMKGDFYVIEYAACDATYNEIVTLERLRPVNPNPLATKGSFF

For another test, the target named is T2, H3K79me3 peptide.
T2 sequence (peptide, trimethyl-lysine at K79 (Kme3)): EIAQDFKTDLRY
The test is described as follows: condition: FXR2 stock 2.4 mM, serial twofold dilutions; fluorescence polarisation; fluoresceinated peptide at 100 nM; FXR1 (stock 1.03 mM) or FXR2 (stock 2.4 mM) in serial twofold dilutions from 1/2 to 1/1024; 20 mM Tris-Cl pH 8.0, 50 mM NaCl, 1 mM DTT; room temperature, 30 minutes; both purified. (In general: In fluorescence polarisation assays a small probe gives low polarisation when free and higher when bound to something large.)

The target in a further test is T3, H3K36me3 peptide.
T3 sequence (peptide, trimethyl-lysine at K36 (Kme3)): PATGGVKKPHRY
The test is described as above.

A further test has as its target T4, H3K37me3 peptide.
T4 sequence (peptide, trimethyl-lysine at K37 (Kme3)): PATGGVKKPHRY
Described as above.

Test [2] concerns the target T1, H3K27me3 peptide. The description is as above.

Results are given in words; binding and its absence hold for the method and conditions named.

“FXR1 tandem Tudor domains (amino acids 2 to 132 of Fragile X Mental Retardation Syndrome-related Protein 1) (from UniProt P51114 2-132) (domain or fragment)”: the binding entry with H3K27me3 peptide [1] is on record as “no binding”.

For the substance “FXR2 tandem Tudor domains (amino acids 14 to 137 of Fragile X Mental Retardation Syndrome-related Protein 2) (from UniProt P51116 14-137) (domain or fragment)”, the binding entry in the test with H3K79me3 peptide, with H3K36me3 peptide, in the test with H3K37me3 peptide and with H3K27me3 peptide [2] was “no binding” in each case.

The record behind these values is paper PMC2970552, “Structural Studies of the Tandem Tudor Domains of Fragile X Mental Retardation Related Proteins FXR1 and FXR2” (PLoS ONE, 2010).
